The test system of this assay is L1210 leukemia ip in BDF1 mice, survival T/C. The assay can be described thus: NCI In Vivo Anticancer Drug Screen. Data for tumor model L1210 Leukemia (intraperitoneal) in B6D2F1 (BDF1) mice. As to conditions: T/C endpoint: mean survival time, higher T/C = longer survival.
Setting [1] is: dose: 400.0 mg/kg/injection, schedule: Q01DX001 (ip), vehicle: carboxymethylcellulose (CMC).
The mark [2] stands for this setting: dose: 200.0 mg/kg/injection, schedule: Q01DX001 (ip), vehicle: saline.
Setting [3] is: dose: 400.0 mg/kg/injection, schedule: Q01DX001 (ip), vehicle: saline.
Setting [4] is: dose: 400.0 mg/kg/injection, schedule: Q04DX002 (ip), vehicle: saline.
Setting [5] is: dose: 400.0 mg/kg/injection, schedule: Q04DX003 (ip), vehicle: saline.

The list shows only some results of the screen, not a fair sample: it is rich in T/C values a quarter to a half above the control, in often repeated tests (any T/C) and in doses without a T/C. Other doses and runs of a compound stand elsewhere. T/C is the treated group as % of the vehicle group. Some entries give survivors of the animals treated and no T/C: the source holds a T/C of zero for them, seemingly a mark for toxic or unscored doses. Some doses without a T/C left all or most animals alive at the check, yet need not have been tolerated: survival well below the control is almost never listed, so the zero probably covers shortened survival too. Survivors were counted at the toxicity check, usually on the fifth day, unless a day is given; later deaths do not show. Schedules are NCI's codes, taken here to give the interval after Q, in days (D) or hours (H), and the number of doses after X. Some schedules carry Z or #; the key to these is not given. Some entries were tested several times; the results are listed from low to high. Some molecules as drawn cover several salts, stereoisomers or complexes of the source; a dose is that of the sample tested. Where survival is the endpoint, this PubChem deposit counts one and a half times the control or more as active, and values a quarter to a half above the control carry no call in these data; other NCI protocols may use other cut-offs. Marks such as (2×) give the number of equal values in this list.

On to `NC(=NCc1ccccc1)c1ccc(NC(=O)c2ccc(C(=O)Nc3ccc(C(N)=NCc4ccccc4)cc3)cc2)cc1`, for which the survivor count runs as follows: (dose: 14.0 mg/kg/injection, schedule: Q01DX Z (ip), vehicle: water) 4 of 6; (dose: 28.0 mg/kg/injection, schedule: Q01DX Z (ip), vehicle: water) 0 of 6; (dose: 56.0 mg/kg/injection, schedule: Q01DX Z (ip), vehicle: carboxymethylcellulose (CMC)) 0 of 6; (dose: 112.0 mg/kg/injection, schedule: Q01DX Z (ip), vehicle: carboxymethylcellulose (CMC)) 0 of 6; (dose: 225.0 mg/kg/injection, schedule: Q01DX Z (ip), vehicle: carboxymethylcellulose (CMC)) 0 of 6; (dose: 450.0 mg/kg/injection, schedule: Q01DX Z (ip), vehicle: carboxymethylcellulose (CMC)) 0 of 6.
On to `Cc1ccccc1SCN(CSc1ccccc1C)C(C)(C)CC(C)(C)C`, for which the survivor count is listed as 2 of 4 (dose: 200.0 mg/kg/injection, schedule: Q01DX001 (ip), vehicle: carboxymethylcellulose (CMC)) and 0 of 4 under setting [1].
For the compound `Nc1nc2ncc(CCCNc3ccc(C(=O)NC(CCC(=O)O)C(=O)O)cc3)nc2c(=O)[nH]1` (configuration not stated), the survivor count under setting [1] is given as 1 of 4.
With `CCCCn1cnc2c(=S)nc[nH]c21`, the T/C is, setting by setting: (dose: 64.0 mg/kg/injection, schedule: Q01DX Z (ip), vehicle: carboxymethylcellulose (CMC)) 140 % of control; (dose: 66.0 mg/kg/injection, schedule: Q01DX015 (ip), vehicle: carboxymethylcellulose (CMC)) 136 % of control; (dose: 80.0 mg/kg/injection, schedule: Q01DX Z (ip), vehicle: carboxymethylcellulose (CMC)) 143 % of control; (dose: 120.0 mg/kg/injection, schedule: Q01DX015 (ip), vehicle: carboxymethylcellulose (CMC)) 147 % of control; (dose: 128.0 mg/kg/injection, schedule: Q01DX Z (oral), vehicle: carboxymethylcellulose (CMC)) 149 % of control; (dose: 129.0 mg/kg/injection, schedule: Q02DX010 (ip), vehicle: carboxymethylcellulose (CMC)) 122, 131, 143 (2×), 167 % of control. Besides, the T/C by setting is: (dose: 132.0 mg/kg/injection, schedule: Q02DX010 (ip), vehicle: carboxymethylcellulose (CMC)) 146 % of control; (dose: 150.0 mg/kg/injection, schedule: Q01DX015 (ip), vehicle: carboxymethylcellulose (CMC)) 131 % of control; (dose: 200.0 mg/kg/injection, schedule: Q02DX010 (ip), vehicle: carboxymethylcellulose (CMC)) 136 % of control; (dose: 201.0 mg/kg/injection, schedule: Q02DX010 (ip), vehicle: carboxymethylcellulose (CMC)) 144, 150, 154 (2×), 156 % of control; (dose: 256.0 mg/kg/injection, schedule: Q01DX009 (ip), vehicle: saline) 136 % of control; (dose: 300.0 mg/kg/injection, schedule: Q02DX010 (ip), vehicle: carboxymethylcellulose (CMC)) 107, 119, 127, 129, 131, 139 % of control. Besides, the T/C (dose: 450.0 mg/kg/injection, schedule: Q02DX010 (ip), vehicle: carboxymethylcellulose (CMC)) is given as 87, 96, 97, 102, 104, 129 % of control and the T/C (dose: 675.0 mg/kg/injection, schedule: Q02DX010 (ip), vehicle: carboxymethylcellulose (CMC)) is listed as 82, 87, 88, 90, 93 % of control. In addition, for the setting “dose: 512.0 mg/kg/injection, schedule: Q01DX Z (ip), vehicle: saline”, the survivor count is on record as 6 of 6.
Turning to `S=c1nc[nH]c2c1ncn2C1CCCO1` (configuration not stated), the T/C was 129 % of control (dose: 22.2 mg/kg/injection, schedule: Q01DX Z (ip), vehicle: methylcellulose (MC)); 134 % of control (dose: 33.3 mg/kg/injection, schedule: Q01DX Z (ip), vehicle: methylcellulose (MC)); 131 % of control (dose: 50.0 mg/kg/injection, schedule: Q01DX Z (ip), vehicle: methylcellulose (MC)).
For `O=C(CCCC(=O)N/N=C/c1cc(Br)ccc1O)N/N=C\c1cc(Br)ccc1O`, the survivor count (dose: 200.0 mg/kg/injection, schedule: Q01DX009 (ip), vehicle: saline) is 6 of 6.
Regarding `N=C(N)SC(c1ccccc1)c1ccccc1`, the survivor count (dose: 100.0 mg/kg/injection, schedule: Q01DX001 (ip), vehicle: Klucel (hydroxypropylcellulose) (HPC)) is reported as 1 of 3; the survivor count (dose: 200.0 mg/kg/injection, schedule: Q01DX001 (ip), vehicle: Klucel (hydroxypropylcellulose) (HPC)) is given as 0 of 3; the survivor count under setting [2] is recorded as 0 of 6; the survivor count (dose: 400.0 mg/kg/injection, schedule: Q01DX001 (ip), vehicle: Klucel (hydroxypropylcellulose) (HPC)) is 0 of 3; the survivor count under setting [3] was 0 of 6.
`CCOC(=O)C1(Cl)OC(Cl)(Cl)C(Cl)C1Cl` (configuration not stated): the survivor count runs as follows: (dose: 100.0 mg/kg/injection, schedule: Q01DX001 (ip), vehicle: saline) 0 of 6; under setting [2], 0 of 6; under setting [3], 0 of 6.
As for `C/C=C/C=C\COC(=O)C1CCCC1`, the T/C under setting [4] was 128 % of control.
With `CCCCNC1=C(NC(=O)C(Cl)Cl)C(=O)c2ccccc2C1=O`, the survivor count runs as follows: (dose: 20.0 mg/kg/injection, schedule: Q04DX003 (ip), vehicle: saline with Tween-80) 3 of 6; (dose: 100.0 mg/kg/injection, schedule: Q04DX003 (ip), vehicle: saline with Tween-80) 0 of 6; (dose: 200.0 mg/kg/injection, schedule: Q04DX003 (ip), vehicle: saline with Tween-80) 0 of 6; (dose: 400.0 mg/kg/injection, schedule: Q04DX003 (ip), vehicle: saline with Tween-80) 0 of 6.
`CCCC[n+]1ccc(C(N)=O)cc1`: the survivor count under setting [5] was 2 of 6.
As for `C(=N\Nc1ccc2ccccc2n1)/c1ccccn1`, the survivor count is, setting by setting: (dose: 150.0 mg/kg/injection, schedule: Q01DX001 (ip), vehicle: other) 0 of 6; (dose: 300.0 mg/kg/injection, schedule: Q01DX001 (ip), vehicle: other) 0 of 6.
In the case of `Cc1ncc(CCl)n1Cc1ccccc1`, the T/C runs as follows: (dose: 25.0 mg/kg/injection, schedule: Q04DX002 (ip), vehicle: saline) 97, 106, 117, 128 % of control; (dose: 50.0 mg/kg/injection, schedule: Q04DX002 (ip), vehicle: saline) 90, 93, 101, 117 % of control; (dose: 100.0 mg/kg/injection, schedule: Q04DX002 (ip), vehicle: saline) 96, 97, 103, 104 % of control. Besides, the survivor count was 1 of 3 (dose: 100.0 mg/kg/injection, schedule: Q04DX002 (ip), vehicle: Klucel (hydroxypropylcellulose) (HPC)); 1 of 6 under setting [2]; 0 of 3 (dose: 200.0 mg/kg/injection, schedule: Q04DX002 (ip), vehicle: Klucel (hydroxypropylcellulose) (HPC)); 1 of 3 and 2 of 6 (dose: 200.0 mg/kg/injection, schedule: Q04DX002 (ip), vehicle: saline); 0 of 3 (dose: 400.0 mg/kg/injection, schedule: Q04DX002 (ip), vehicle: Klucel (hydroxypropylcellulose) (HPC)); 0 of 3 and 0 of 6 under setting [4]. Also, under setting [5], the survivor count was 6 of 6.
Turning to `C[C@]12CC[C@H](OC3OC(CO)C(O)C(O)C3O)C[C@H]1CC[C@@H]1[C@@H]2CC[C@]2(C)[C@@H](C3=CCOC3=O)CC[C@]12O` (some centres not stated), the survivor count is 6 of 6 (dose: 4.0 mg/kg/injection, schedule: Q01DX010 (ip), vehicle: saline) and 2 of 4 (dose: 32.0 mg/kg/injection, schedule: Q01DX001 (ip), vehicle: saline).
Regarding `O=C(CC(=O)C(F)(F)F)c1csc2ccccc12`, the survivor count (dose: 100.0 mg/kg/injection, schedule: Q01DX009 (ip), vehicle: saline) is recorded as 0 of 6; the survivor count (dose: 150.0 mg/kg/injection, schedule: Q04DX003 (ip), vehicle: acetone) is listed as 2 of 6; the survivor count under setting [2] is listed as 1 of 6; the survivor count (dose: 225.0 mg/kg/injection, schedule: Q04DX003 (ip), vehicle: acetone) is 4 of 6; the survivor count (dose: 335.0 mg/kg/injection, schedule: Q04DX003 (ip), vehicle: acetone) is given as 0 of 6; the survivor count under setting [3] was 0 of 6.

The values are drawn from PubChem BioAssay AID248 (DTP/NCI, 2004).
